Four substances from doi:10.1101/2024.04.19.590210 can be followed below.

Amino acid sequences for entries named in this document (tags omitted).
UniProt Q39057: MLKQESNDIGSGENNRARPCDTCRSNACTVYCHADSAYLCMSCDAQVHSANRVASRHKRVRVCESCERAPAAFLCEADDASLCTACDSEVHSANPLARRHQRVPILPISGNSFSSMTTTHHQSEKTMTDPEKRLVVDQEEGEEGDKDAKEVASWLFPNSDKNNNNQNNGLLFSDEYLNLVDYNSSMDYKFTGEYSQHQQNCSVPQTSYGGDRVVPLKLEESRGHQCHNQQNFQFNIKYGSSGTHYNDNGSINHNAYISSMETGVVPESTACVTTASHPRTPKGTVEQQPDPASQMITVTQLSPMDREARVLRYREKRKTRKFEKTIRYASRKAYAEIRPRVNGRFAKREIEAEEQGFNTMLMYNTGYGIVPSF
UniProt Q9SXZ2: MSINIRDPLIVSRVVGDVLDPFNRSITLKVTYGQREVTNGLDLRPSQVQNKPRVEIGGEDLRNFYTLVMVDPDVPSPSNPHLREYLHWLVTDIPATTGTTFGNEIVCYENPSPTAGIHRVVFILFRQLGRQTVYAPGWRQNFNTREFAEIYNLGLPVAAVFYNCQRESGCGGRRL
UniProt Q9C7E8: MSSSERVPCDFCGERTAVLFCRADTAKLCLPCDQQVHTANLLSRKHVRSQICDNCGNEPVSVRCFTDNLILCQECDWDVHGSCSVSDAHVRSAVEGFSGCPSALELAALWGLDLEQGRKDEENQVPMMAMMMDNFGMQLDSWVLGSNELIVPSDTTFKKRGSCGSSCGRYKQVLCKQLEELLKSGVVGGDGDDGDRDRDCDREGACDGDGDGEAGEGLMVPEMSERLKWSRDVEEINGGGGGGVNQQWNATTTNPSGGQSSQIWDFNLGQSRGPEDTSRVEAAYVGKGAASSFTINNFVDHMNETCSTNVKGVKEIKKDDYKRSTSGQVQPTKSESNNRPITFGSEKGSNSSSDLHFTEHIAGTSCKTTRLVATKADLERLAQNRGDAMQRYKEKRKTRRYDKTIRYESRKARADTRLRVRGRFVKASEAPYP

No constants are given. Whether binding was seen depends on the method and setting. For some of these results: In cells and extracts the contact can be indirect. Some entries that bind do so weakly or less than the wild type.

In assay [1] the target is cYFP-CO (Arabidopsis thaliana) (UniProt Q39057). Nature of the assay: split reporter.
The target in assay [2] is CO fused to the GAL4 binding domain (Arabidopsis thaliana) (UniProt Q39057). The experiment in a line: two-hybrid.
In assay [3] the target is FT, yeast two-hybrid fusion (Arabidopsis thaliana) (UniProt Q9SXZ2). The experiment in a line: two-hybrid.

nYFP-BBX13 (from UniProt Q9C7E8 1-433): in assay [1], the binding result is “binds”.
Still for that read-out and setting: to “FT in pCL112 (nYFP fusion) (from UniProt Q9SXZ2 1-175)” belongs “no binding”.
In the case of “BBX13 fused to the GAL4 activation domain (from UniProt Q9C7E8 1-433)”, in assay [2], the binding result is “binds”.
With “BBX13, yeast two-hybrid fusion tested against FT (Figure S4) (from UniProt Q9C7E8 1-433)”, the binding result in assay [3] is on record as “no binding”.
